In doi:10.1101/111831:
No constants are given. Whether binding was seen depends on the method and setting. In cells and extracts the contact can be indirect. Some entries that bind do so weakly or less than the wild type. Sequences can lack the tags named with a protein.

Biological target: T1, NRPE1 Δ1251-1976, C-terminal HA tag (full CTD deletion) (Arabidopsis thaliana (ecotype Col-0)) (UniProt Q5D869)
T1 sequence: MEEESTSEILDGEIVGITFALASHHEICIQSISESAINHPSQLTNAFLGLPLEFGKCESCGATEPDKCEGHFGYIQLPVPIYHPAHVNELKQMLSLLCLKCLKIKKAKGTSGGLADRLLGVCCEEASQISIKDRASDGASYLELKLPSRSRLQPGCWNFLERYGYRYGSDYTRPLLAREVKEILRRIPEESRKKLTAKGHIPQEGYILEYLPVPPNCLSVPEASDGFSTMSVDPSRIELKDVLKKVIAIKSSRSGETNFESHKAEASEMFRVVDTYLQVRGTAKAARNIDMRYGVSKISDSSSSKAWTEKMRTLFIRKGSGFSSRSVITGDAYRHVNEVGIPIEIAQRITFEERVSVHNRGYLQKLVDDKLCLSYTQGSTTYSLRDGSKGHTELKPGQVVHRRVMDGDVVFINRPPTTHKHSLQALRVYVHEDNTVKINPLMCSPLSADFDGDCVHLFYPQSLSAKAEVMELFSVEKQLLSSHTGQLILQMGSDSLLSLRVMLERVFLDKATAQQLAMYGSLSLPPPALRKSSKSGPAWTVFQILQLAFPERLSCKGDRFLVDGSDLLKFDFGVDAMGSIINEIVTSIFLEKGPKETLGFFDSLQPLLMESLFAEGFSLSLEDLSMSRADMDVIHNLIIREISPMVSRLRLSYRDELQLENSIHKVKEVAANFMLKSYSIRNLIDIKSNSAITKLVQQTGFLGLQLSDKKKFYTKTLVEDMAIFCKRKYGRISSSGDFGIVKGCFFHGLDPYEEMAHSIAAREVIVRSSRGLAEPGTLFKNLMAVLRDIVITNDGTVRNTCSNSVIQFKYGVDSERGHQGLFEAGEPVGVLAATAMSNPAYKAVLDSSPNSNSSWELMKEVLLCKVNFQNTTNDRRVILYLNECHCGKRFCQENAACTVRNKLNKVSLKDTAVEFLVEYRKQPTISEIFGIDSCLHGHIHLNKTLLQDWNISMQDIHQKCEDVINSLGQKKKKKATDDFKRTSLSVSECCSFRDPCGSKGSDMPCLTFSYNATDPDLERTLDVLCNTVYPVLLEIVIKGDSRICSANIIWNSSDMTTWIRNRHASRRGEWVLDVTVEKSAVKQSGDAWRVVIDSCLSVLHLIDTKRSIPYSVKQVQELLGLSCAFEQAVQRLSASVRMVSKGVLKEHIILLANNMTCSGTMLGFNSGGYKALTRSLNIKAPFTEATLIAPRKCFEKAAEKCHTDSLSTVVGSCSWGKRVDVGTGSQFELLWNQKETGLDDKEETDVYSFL
Assay: co-IP

B1: NRP(B/D/E)11, 11th subunit common to Pols II, IV and V (protein, UniProt Q38859 1-116)
chain: MNAPERYERFVVPEGTKKVSYDRDTKIINAASFTVEREDHTIGNIVRMQLHRDENVLFAGYQLPHPLKYKIIVRIHTTSQSSPMQAYNQAINDLDKELDYLKNQFEAEVAKFSNQF
binding: binds
